# At least one compound was matched to its structure with a doubt left.
# Experiment: Qualitative analysis of dental fiber doping (fluorescence under blue lamp)
# Format: physicochemical
# Source text: Commercially available dental fibers were dipped into solutions of Eosin […], or 0.1 g/L) for 10 seconds. The fibers were taken out and observed for color, then put under a blue lamp and the fluorescence was observed qualitatively. […] Dental fibers were dipped into solutions of fluorescein (50 […]) for 10 seconds. The fibers were then taken out and observed for color, then put under a blue lamp and the fluorescence was observed qualitatively. […] Dental fibers were dipped into solutions of fluorescein:Eosin […] total chromophore) solution for 10 seconds again. The fibers were then taken out and observed for color, then put under a blue lamp and the fluorescence was observed qualitatively.
smiles,measurement,setting,value
O=C1OC2(c3ccc(O)cc3Oc3cc(O)ccc32)c2ccccc21 [fluorescein],fluorescence observed qualitatively under blue lamp,"dental fibers dipped 10 seconds, 50 g/L solution",showed fluorescence
same,fluorescence observed qualitatively under blue lamp,"polypropylene fibers dipped 10 seconds, 10 g/L solution",increase in fluorescence
same,fluorescence observed qualitatively under blue lamp,"polypropylene fibers dipped 10 seconds, 50 g/L solution",little fluorescence

# From patent US11421349B2, “Photoactivatable fibers and fabric media” (KLOX TECHNOLOGIES INC., priority 2014, dated 2022)
